Some of the results follow.
Key:
Test in all cases: glycan array binding signal (z-score within array); higher = stronger binding
Conditions in all cases: glycan notation: IUPAC condensed, linker removed
[1] = molecular target: Gal(b1-4)GlcNAc(b1-2)Man(a1-6)[Man(a1-3)]Man(b1-4)GlcNAc(b1-4)GlcNAc
Summary of the method: (§1)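 Glycan array binding is given as a within-array Z-score, which can be read as non-binding when negative. The arrays, 3228 of them, came from the Consortium for Functional Glycomics database and were retained only where the protein sequence was available. Z-scores were averaged across arrays of the same protein sequence at different concentrations or buffers and across linkers.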

[2] = molecular target: Gal(b1-4)GlcNAc(b1-2)[Gal(b1-4)GlcNAc(b1-4)]Man(a1-3)[Gal(b1-4)GlcNAc(b1-2)Man(a1-6)]Man(b1-4)GlcNAc(b1-4)GlcNAc
Summary of the method: as §1

[3] = molecular target: Gal(b1-4)GlcNAc(b1-2)[Gal(b1-4)GlcNAc(b1-4)]Man(a1-3)[Gal(b1-4)GlcNAc(b1-2)[Gal(b1-4)GlcNAc(b1-6)]Man(a1-6)]Man(b1-4)GlcNAc(b1-4)GlcNAc
Summary of the method: as §1

[4] = molecular target: Gal(b1-4)GlcNAc(b1-2)[Gal(b1-4)GlcNAc(b1-4)]Man(a1-3)[GlcNAc(b1-4)][Gal(b1-4)GlcNAc(b1-2)Man(a1-6)]Man(b1-4)GlcNAc(b1-4)GlcNAc
Summary of the method: as §1

[5] = molecular target: Gal(b1-4)GlcNAc(b1-2)[Gal(b1-4)GlcNAc(b1-4)]Man(a1-3)[GlcNAc(b1-4)][Gal(b1-4)GlcNAc(b1-2)[Gal(b1-4)GlcNAc(b1-6)]Man(a1-6)]Man(b1-4)GlcNAc(b1-4)GlcNAc
Summary of the method: as §1

[6] = molecular target: Gal(b1-4)GlcNAc(b1-2)[Gal(b1-4)GlcNAc(b1-6)]Man(a1-6)[Gal(b1-4)GlcNAc(b1-2)Man(a1-3)]Man(b1-4)GlcNAc(b1-4)GlcNAc
Summary of the method: as §1

[7] = molecular target: Gal(b1-4)GlcNAc(b1-2)[Gal(b1-4)GlcNAc(b1-6)]Man(a1-6)[Gal(b1-4)GlcNAc(b1-2)Man(a1-3)]Man(b1-4)GlcNAc(b1-4)[Fuc(a1-6)]GlcNAc
Summary of the method: as §1

[8] = molecular target: Gal(b1-4)GlcNAc(b1-2)[Gal(b1-4)GlcNAc(b1-6)]Man(a1-6)[GlcNAc(b1-4)][Gal(b1-4)GlcNAc(b1-2)Man(a1-3)]Man(b1-4)GlcNAc(b1-4)GlcNAc
Summary of the method: as §1

[9] = molecular target: Gal(b1-4)GlcNAc(b1-2)[Gal(b1-4)GlcNAc(b1-6)]Man(a1-6)[GlcNAc(b1-4)][Gal(b1-4)GlcNAc(b1-2)[Gal(b1-4)GlcNAc(b1-4)]Man(a1-3)]Man(b1-4)GlcNAc(b1-4)[Fuc(a1-6)]GlcNAc
Summary of the method: as §1

[10] = molecular target: Gal(b1-4)GlcNAc(b1-3)Gal(b1-3)GalNAc
Summary of the method: as §1

[11] = molecular target: Gal(b1-4)GlcNAc(b1-3)Gal(b1-3)GlcNAc
Summary of the method: as §1

[12] = molecular target: Gal(b1-4)GlcNAc(b1-3)Gal(b1-4)Glc
Summary of the method: as §1

[13] = molecular target: Gal(b1-4)GlcNAc(b1-3)Gal(b1-4)GlcNAc
Summary of the method: as §1

[14] = molecular target: Gal(b1-4)GlcNAc(b1-3)Gal(b1-4)GlcNAc(b1-2)Man(a1-3)[Gal(b1-4)GlcNAc(b1-3)Gal(b1-4)GlcNAc(b1-2)Man(a1-6)]Man(b1-4)GlcNAc(b1-4)GlcNAc
Summary of the method: as §1

[15] = molecular target: Gal(b1-4)GlcNAc(b1-3)Gal(b1-4)GlcNAc(b1-2)Man(a1-3)[Gal(b1-4)GlcNAc(b1-3)Gal(b1-4)GlcNAc(b1-2)Man(a1-6)]Man(b1-4)GlcNAc(b1-4)[Fuc(a1-6)]GlcNAc
Summary of the method: as §1

[16] = molecular target: Gal(b1-4)GlcNAc(b1-3)Gal(b1-4)GlcNAc(b1-2)[Gal(b1-4)GlcNAc(b1-3)Gal(b1-4)GlcNAc(b1-6)]Man(a1-6)[Gal(b1-4)GlcNAc(b1-3)Gal(b1-4)GlcNAc(b1-2)Man(a1-3)]Man(b1-4)GlcNAc(b1-4)GlcNAc
Summary of the method: as §1

[17] = molecular target: Gal(b1-4)GlcNAc(b1-3)Gal(b1-4)GlcNAc(b1-2)[Gal(b1-4)GlcNAc(b1-3)Gal(b1-4)GlcNAc(b1-6)]Man(a1-6)[Gal(b1-4)GlcNAc(b1-3)Gal(b1-4)GlcNAc(b1-2)Man(a1-3)]Man(b1-4)GlcNAc(b1-4)[Fuc(a1-6)]GlcNAc
Summary of the method: as §1

[18] = molecular target: Gal(b1-4)GlcNAc(b1-3)Gal(b1-4)GlcNAc(b1-3)Gal(b1-4)GlcNAc
Summary of the method: as §1

B1: RobpsCRA (Robinia pseudoacacia) (protein)
chain: IKGGYWYSGSGLAVSDINPSHFTHLFCAFADLDPNTNKLTISSSNAAAFSTFTQTVRAKNPSVKTLLSIGGGGGRALAAVFANMASQASRRKSFIDSSIQLARRNNFHGLDLDWEYPSSDIDKTNFASLIREWRAAVATESSTSGTPALLLSAAVGGSDQITPLKYYPGEAIANNLDWVNVMTYDLYTSDSYPTLTQPPAPLFYPRGIFSADEGITKWIQSGVPESKLALGLPFYGFKWRLSDPNNHGLFAPATQGLGAVKYKDIVNTGGQVEFDSTYVTNYCFKGTDWYGYDDTQSISAKVAYAKQRGLFGYFAWHIEQDSNWALS
**Q.** With B1 as the binder, how does the “glycan array binding signal (z-score)” value [1] read?
**A.** 0.031

**Q.** What about the “glycan array binding signal (z-score)” value [2] of the same binder?
**A.** -0.651

**Q.** And the “glycan array binding signal (z-score)” value [3]?
**A.** -0.233

**Q.** And the “glycan array binding signal (z-score)” value [4]?
**A.** -0.448

**Q.** And the “glycan array binding signal (z-score)” value [5]?
**A.** 0.425

**Q.** What about the “glycan array binding signal (z-score)” value [6] of the same binder?
**A.** -0.824

**Q.** And the “glycan array binding signal (z-score)” value [7]?
**A.** 1.6

**Q.** What about the “glycan array binding signal (z-score)” value [8] of the same binder?
**A.** -0.363

**Q.** What about the “glycan array binding signal (z-score)” value [9] of the same binder?
**A.** 0.189

**Q.** What about the “glycan array binding signal (z-score)” value [10] of the same binder?
**A.** -0.603

**Q.** And the “glycan array binding signal (z-score)” value [11]?
**A.** -0.448

**Q.** What about the “glycan array binding signal (z-score)” value [12] of the same binder?
**A.** -0.529

**Q.** What about the “glycan array binding signal (z-score)” value [13] of the same binder?
**A.** -0.031

**Q.** And the “glycan array binding signal (z-score)” value [14]?
**A.** 1.01

**Q.** And the “glycan array binding signal (z-score)” value [15]?
**A.** 0.024

**Q.** And the “glycan array binding signal (z-score)” value [16]?
**A.** 0.083

**Q.** What about the “glycan array binding signal (z-score)” value [17] of the same binder?
**A.** 0.741

**Q.** And the “glycan array binding signal (z-score)” value [18]?
**A.** 0.868
